In patent US20250361288A1 (Gilead, published 2025):
Results are given in words; binding and its absence hold for the method and conditions named. Some results given as binding are weak or reduced against the parent protein; the word gives no strength.

The chains behind the UniProt entries cited, without tags or fusion partners. Residues count along the entry.
UniProt P36941, residues 31-227: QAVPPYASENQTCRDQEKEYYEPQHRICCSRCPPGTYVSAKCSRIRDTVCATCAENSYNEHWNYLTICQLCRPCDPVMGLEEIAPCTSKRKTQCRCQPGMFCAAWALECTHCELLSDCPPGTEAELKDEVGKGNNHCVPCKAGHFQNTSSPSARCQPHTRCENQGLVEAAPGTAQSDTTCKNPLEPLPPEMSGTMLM
UniProt P50284, residues 31-223: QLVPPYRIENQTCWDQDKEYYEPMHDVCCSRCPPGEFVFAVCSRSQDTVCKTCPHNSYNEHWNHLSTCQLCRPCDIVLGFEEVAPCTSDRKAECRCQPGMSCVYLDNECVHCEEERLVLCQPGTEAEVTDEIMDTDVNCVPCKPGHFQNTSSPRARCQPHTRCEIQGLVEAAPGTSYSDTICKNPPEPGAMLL
UniProt Q80WM9, residues 39-206: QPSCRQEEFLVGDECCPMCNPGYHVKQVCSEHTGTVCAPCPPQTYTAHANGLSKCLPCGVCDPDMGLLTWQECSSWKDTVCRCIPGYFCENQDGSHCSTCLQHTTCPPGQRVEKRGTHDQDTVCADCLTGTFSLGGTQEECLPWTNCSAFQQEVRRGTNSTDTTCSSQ

Key:
[1] = target: human LTβR extracellular domain fused with an Fc fragment at the C-terminus (human) (UniProt P36941); assay: phage ELISA
[2] = target: mouse LTβR extracellular domain fused with an Fc fragment at the C-terminus (mouse) (UniProt P50284); assay: phage ELISA
[3] = target: mouse HVEM extracellular domain fused with an Fc fragment at the C-terminus (mouse) (UniProt Q80WM9); assay: phage ELISA
[4] = target: human LTβR extracellular domain fused with an Fc fragment at the C-terminus (human) (UniProt P36941); assay: ELISA on coated target-Fc
[5] = target: mouse LTβR extracellular domain fused with an Fc fragment at the C-terminus (mouse) (UniProt P50284); assay: ELISA (FIG. 7)

Measured: binding

LIGHT-84 (from UniProt O43557 74-240) (ligand)
binds: [1] | [2]

LIGHT-12 (from UniProt O43557 74-240) (ligand)
binds: [1] | [3] | [2]

B1: LIGHT-14 (ligand)
chain: DGPAGSWEQLIQERRSHEVNPAAHLTGANSSLTGSGGPLLWESQLGLAFLRGLSYHDGALVVTKAGYYYIYSKVQLGGVGCPLGQASTITHGMYKRTPRYPEELELLVSQQSPCGRATSSSRVWWDSSFLGGVVHLEAGEKVVVRVLDERLVRLRDGTRSYFGAFMV
notes: Soluble protein carries an N-terminal His tag
binds: [1] | [3] | [2] | [4]

B2: LIGHT-18 (ligand)
chain: DGPAGSWEQLIQERRSHEVNPAAHLTGANSSLTGSGGPLLWETQLGLAFLRGLSYHDGALVITKAGYYYIYSKVQLGGVGCPLGQASTITHGLYKRTPRYPEELELLVSQQSPCGRATSSSRVWWDSSFLGGVVHLEAGEEVVVRVLDKRLVRLRDGTRSYFGAFMV
notes: as for B1
binds: [1] | [3] | [2]

B3: LIGHT-19 (ligand)
chain: DGPAGSWEQLIQERRSHEVNPAAHLTGANSSLTGSGGPLLWETQLGLAFLRGLSYHDGALVVSKAGYYYIYSKVQLGGVGCPPGLAGTITHGLYKRTPRYPEELELLVSQQSPCGRATSSSRVWWDSSFLGGVVHLEAGEKVVVRVMDERLVRLRDGTRSYFGAFMV
notes: as for B1
binds: [1] | [3] | [2] | [4]

B4: LIGHT-89 (ligand)
chain: DGPAGSWEQLIQERRSHEVNPTAHLTGANSSLTGSGGPLLWETQLGLAFLRGLSYHDGALVVTKAGYYYIYSKVQLRGVGCPLGLARTITHGLYKRTPRYLEELELLVSQQSPCGRATSSSRVWQDSSFLGGVVHLEAGEKVVVRVLDERLVRLLDGTRSYFGAFMV
notes: as for B1
binds: [1] | [2] | [5]
